Values of other authors, collected in patent US8580843B2, “Use of diindolylmethane (DIM) compounds and derivatives as neuroprotective agents” (Colorado State University Research Foundation, priority 2008, dated 2013).
At least one structure is not confirmed: it was looked up by name or label, or the drawing left a doubt.

Tested on: dopaminergic neurons
Conditions: preserving dopaminergic cell bodies in the substantia nigra but not dopaminergic fibers in the striatum; cited from earlier work

CCc1ccc(CCOc2ccc(CC3SC(=O)NC3=O)cc2)nc1 (stereo not shown) [pioglitazone]
Neuroprotection in the MPTP model of Parkinson's disease: only partial neuroprotection
